From US4623626A (priority 1982, dated 1986)
For at least one compound, name, drawing or mass did not settle the structure.

What was measured:
[1] = tested on: glutamic acid oxidase (known enzyme); settings: cited from earlier work
[2] = molecular target: T1, L-glutamic acid oxidase (enzyme of the present invention) (Streptomyces sp, UniProt Q8L3C7); assay: Effects of additives on the enzyme activity (inhibition, activation); assay type: biochemical, Streptomyces sp. X-119-6; settings: additive 1 mM, pH 7.4
T1 construct: isolated and purified the enzyme of the present invention as a single enzyme protein from such a cultured product of the microorganism; made in house; host or cells: natural producer, Streptomyces sp; (strain X-119-6 per the earlier reading); enzyme purified from the cultured product, not recombinant
T1 sequence (Q8L3C7 15-390 limits assumed): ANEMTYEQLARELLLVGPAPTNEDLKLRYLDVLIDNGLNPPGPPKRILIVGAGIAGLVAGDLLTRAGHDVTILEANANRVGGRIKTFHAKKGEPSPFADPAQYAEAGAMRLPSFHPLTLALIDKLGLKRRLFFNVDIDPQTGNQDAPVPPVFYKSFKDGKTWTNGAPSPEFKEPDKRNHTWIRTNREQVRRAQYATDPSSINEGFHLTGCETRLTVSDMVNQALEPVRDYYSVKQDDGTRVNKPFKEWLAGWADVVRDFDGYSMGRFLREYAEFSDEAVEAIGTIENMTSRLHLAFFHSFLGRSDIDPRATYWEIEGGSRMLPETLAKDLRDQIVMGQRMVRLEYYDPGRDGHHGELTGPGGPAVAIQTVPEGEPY
T1 sequence (Q8L3C7 391-520 limits assumed): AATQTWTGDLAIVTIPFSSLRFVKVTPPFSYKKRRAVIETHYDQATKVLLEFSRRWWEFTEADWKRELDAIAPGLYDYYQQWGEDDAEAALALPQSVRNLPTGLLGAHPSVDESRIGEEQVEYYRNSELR
T1 sequence (Q8L3C7 521-701 limits assumed): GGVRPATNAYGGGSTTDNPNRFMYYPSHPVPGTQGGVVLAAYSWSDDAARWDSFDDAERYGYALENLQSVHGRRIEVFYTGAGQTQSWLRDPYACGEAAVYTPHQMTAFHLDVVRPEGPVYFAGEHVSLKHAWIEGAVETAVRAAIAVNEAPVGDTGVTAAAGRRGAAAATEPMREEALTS
Description: For examination of the effects of various additives on the enzyme activity of the present invention, enzymatic reaction was carried out in a reaction mixture (pH 7.4) containing each of the substances shown in Table 2 at a concentration of 1 mM.

CCN(CC)C(=S)S [DDTC, diethyldithiocarbamate, reference compound]
inhibition of the known enzyme [1]: Substantially completely inhibited | inhibition of the activity of the enzyme of the present invention [2]: not inhibited at all
